{
  "source": "patent US20230028710A1",
  "about": "“IDENTIFICATION OF MICROBIAL CONT[…] INFECTIONS IN LIQUID SAMPLES BY RAMAN SPECTROSCOPY” (microPhotonX GmbH, priority 2019, published 2023)",
  "system": "Live bacteria collected from Sputum",
  "experiment": "Detecting the effect of antibiotic on bacteria using Raman trapping microscopy",
  "format": "cell-based",
  "conditions": "ofloxacin 2 mg/mL for 2 hrs",
  "note": "“Also recorded” adds a separate entry of the source. At least one structure is not confirmed: it was looked up by name or label, or the drawing left a doubt.",
  "data": [
    {"smiles": "CC1COc2c(N3CCN(C)CC3)c(F)cc3c(=O)c(C(=O)O)cn1c23", "note": "(centres unmarked) [ofloxacin]", "values": [
      {"measurement": "Raman spectra of bacteria treated with ofloxacin vs the same bacteria without any treatment", "setting": "Raman trapping microscopy (BioRam), FIG. 18", "value": "Raman spectra changes are clearly observed"},
      {"measurement": "principal component analysis (PCA) of the Raman data, control vs ofloxacin treated bacteria", "setting": "score plot FIG. 19 (a)", "value": "clear difference between control and ofloxacin treated bacteria; also recorded: different scattering patterns"}
    ]}
  ]
}
